The record followed here is PMC7000802.

In this experiment the target is T1, Flag-IKK2 (IκB kinase 2), O14920.
T1 chain: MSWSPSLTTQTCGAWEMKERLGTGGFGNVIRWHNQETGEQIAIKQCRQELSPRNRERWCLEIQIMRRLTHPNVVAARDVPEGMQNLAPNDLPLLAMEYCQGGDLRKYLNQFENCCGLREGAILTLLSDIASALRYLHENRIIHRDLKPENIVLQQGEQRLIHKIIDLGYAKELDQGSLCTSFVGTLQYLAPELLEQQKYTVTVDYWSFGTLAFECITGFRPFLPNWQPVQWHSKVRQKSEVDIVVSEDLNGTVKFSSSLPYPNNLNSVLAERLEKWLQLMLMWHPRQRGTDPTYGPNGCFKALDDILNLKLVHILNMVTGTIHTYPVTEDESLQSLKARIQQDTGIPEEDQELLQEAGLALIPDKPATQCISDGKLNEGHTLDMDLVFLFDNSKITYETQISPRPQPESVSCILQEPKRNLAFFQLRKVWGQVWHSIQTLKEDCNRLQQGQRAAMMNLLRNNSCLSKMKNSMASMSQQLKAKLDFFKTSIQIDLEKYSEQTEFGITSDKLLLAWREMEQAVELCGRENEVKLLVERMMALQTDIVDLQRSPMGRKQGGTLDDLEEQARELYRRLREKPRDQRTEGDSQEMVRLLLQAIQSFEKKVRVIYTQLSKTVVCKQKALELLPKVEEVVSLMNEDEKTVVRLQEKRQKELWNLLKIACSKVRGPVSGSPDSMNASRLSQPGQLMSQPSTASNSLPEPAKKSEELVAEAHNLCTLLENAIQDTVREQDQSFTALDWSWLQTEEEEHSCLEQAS
Description: co-IP; LMP1-induced interaction of TAK1 with IKK2, with or without NEMO, Supplementary Fig. 2b; legend not shown, method taken from the paper's general co-immunoprecipitation procedure. The following applies: remark: other sources report otherwise.

No constants are given. Whether binding was seen depends on the method and setting. Binding seen in cells or lysates may run through a third protein. Some entries that bind do so weakly or less than the wild type. Sequences can lack the tags named with a protein.

B1: TGFβ-activated kinase 1 (TAK1), O43318 1-606 (enzyme)
chain: MSTASAASSSSSSSAGEMIEAPSQVLNFEEIDYKEIEVEEVVGRGAFGVVCKAKWRAKDVAIKQIESESERKAFIVELRQLSRVNHPNIVKLYGACLNPVCLVMEYAEGGSLYNVLHGAEPLPYYTAAHAMSWCLQCSQGVAYLHSMQPKALIHRDLKPPNLLLVAGGTVLKICDFGTACDIQTHMTNNKGSAAWMAPEVFEGSNYSEKCDVFSWGIILWEVITRRKPFDEIGGPAFRIMWAVHNGTRPPLIKNLPKPIESLMTRCWSKDPSQRPSMEEIVKIMTHLMRYFPGADEPLQYPCQYSDEGQSNSATSTGSFMDIASTNTSNKSDTNMEQVPATNDTIKRLESKLLKNQAKQQSESGRLSLGASRGSSVESLPPTSEGKRMSADMSEIEARIAATTAYSKPKRGHRKTASFGNILDVPEIVISGNGQPRRRSIQDLTVTGTEPGQVSSRSSSPSVRMITTSGPTSEKPTRSHPWTPDDSTDTNGSDNSIPMAYLTLDHQLQPLAPCPNSKESMAVFEQHCKMAQEYMKVQTEIALLLQRKQELVAELDQDEKDQQNTSRLVQEHKKLLDENKSLSTYYQQCKKQLEVIRSQQQKRQGTS
On to B1, for which the binding result is “binds”.
